Data source: PubChem BioAssay AID743454 (Peter MacCallum Cancer Centre, 2014)

Assay: 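Genes whose loss kills vorinostat-resistant colon cancer cells under vorinostat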 (primary screen)
Cell system: human HCT116-VR colon cancer cells, selected for vorinostat resistance
Reagents: siRNA pool against human genes, 40 nM siRNA pool
Timing: vorinostat for 24 h, read-out about 72 h after transfection
Treatment: vorinostat at 2.5 µM final
Measurement: 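Cell viability by CellTiter-Fluor and caspase 3/7 activity by luminescence, each scaled to mock wells per plate, duplicates averaged, then robust z-scored over all plates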
Reading the numbers: viability robust z-score: higher = more viable cells than screen typical; caspase robust z-score: higher = more caspase 3/7 activity than screen typical
Rule for the call: 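a knock-down is a hit when classed RV1 or RV2 for lowered viability, or CA1 or CA2 for caspase activation; those lethal without drug were dropped; hits were retested singly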
The deposit covers about 18,000 reagents; shown is a random part of them. 450 of them (2.5%) were called active. 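Single biological run; no consistent viability z cut-off exists, so the class columns, not z-scores, define the calls.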 Reagent sequences are not shown.

target | viability hit class | caspase hit class | viability robust z-score | caspase robust z-score | call
HSPA9 (heat shock protein family A (Hsp70) member 9) | no change | no change | -2.7 | 0.12 | inactive
BARHL1 (BarH like homeobox 1) | no change | no change | -1.43 | -0.24 | inactive
TLE3 (TLE family member 3, transcriptional corepressor) | no change | no change | 0.72 | -0.37 | inactive
EIF4G2 (eukaryotic translation initiation factor 4 gamma 2) | no change | no change | -0.19 | 2.56 | inactive
C16orf46 (chromosome 16 open reading frame 46) | no change | no change | 0.68 | 0.99 | inactive
GTF2F1 (general transcription factor IIF subunit 1) | no change | no change | 1.5 | 4.19 | inactive
KRT9 (keratin 9) | no change | no change | 0.68 | 1 | inactive
VAMP1 (vesicle associated membrane protein 1) | no change | no change | -1.71 | 2.19 | inactive
SERPINF2 (serpin family F member 2) | no change | no change | -1.04 | 2.6 | inactive
LHX6 (LIM homeobox 6) | no change | no change | -0.62 | 0.78 | inactive
XPOT (exportin for tRNA) | no change | no change | -0.28 | -0.14 | inactive

2 entries from above, reformatted.
target	viability hit class	caspase hit class	viability robust z-score	caspase robust z-score	call
BARHL1 (BarH like homeobox 1)	no change	no change	-1.43	-0.24	inactive
TLE3 (TLE family member 3, transcriptional corepressor)	no change	no change	0.72	-0.37	inactive

The listing continues:
target | viability hit class | caspase hit class | viability robust z-score | caspase robust z-score | call
TTC12 (tetratricopeptide repeat domain 12) | no change | no change | 0.16 | 0.34 | inactive
FBF1 (Fas binding factor 1) | no change | no change | 0.86 | -0.97 | inactive
OLFM4 (olfactomedin 4) | no change | no change | 0.77 | -0.81 | inactive
NT5E (5'-nucleotidase ecto) | no change | no change | 2.12 | -1.02 | inactive
NEDD4L (NEDD4 like E3 ubiquitin protein ligase) | no change | no change | 0.54 | -0.86 | inactive
PYGO1 (pygopus family PHD finger 1) | no change | no change | -0.59 | 0.11 | inactive
OR4B1 (olfactory receptor family 4 subfamily B member 1) | no change | no change | 1.01 | -0.62 | inactive
DNAJB14 (DnaJ heat shock protein family (Hsp40) member B14) | no change | no change | 1.88 | 0.42 | inactive
KRTAP2-4 (keratin associated protein 2-4) | no change | no change | -1.18 | 0.34 | inactive
RNF8 (ring finger protein 8) | no change | no change | -0.19 | -0.19 | inactive
THTPA (thiamine triphosphatase) | no change | no change | -0.29 | -1.52 | inactive
DCAF7 (DDB1 and CUL4 associated factor 7) | no change | no change | -0.94 | 3.4 | inactive
